# Assay results published in PubChem BioAssay AID504834 (National Center for Advancing Translational Sciences (NCATS), 2011).
# Screen size: about 320,000 compounds; about 22,000 (6.9%) were called active. This list was built around the results that the source calls inconclusive (neither active nor inactive); the mix of calls is not that of the screen. Calls follow the shape of the dose curve; as a rule, active = well fitted inhibition curve with a large enough effect; inconclusive = small, poorly fitted or top-dose-only effect, or another doubt; inactive = no such curve, though single readings can be large or run the other way. Potencies of inconclusive entries are doubtful fits and often do not repeat.
# Assay: Primary qHTS for delayed death inhibitors of the malarial parasite plastid, 96 hour incubation
# Conditions: P. falciparum luciferase reporter growth; series mostly up to 28.7 µM; activity change, negative = inhibition: at the top concentration
# Procedure, shortened: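 Delayed-death screen, second-generation endpoint: infected erythrocytes, 2% hematocrit, 0.05% parasitemia final; 96 hours at 37 C, 5% CO2; luciferase detection reagent; luminescence decrease equals reduced growth.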
# % is scaled to controls: 0 for no effect and ±100 for the full control effect; potency is read from the fitted curve at half-maximal effect.
Structure (SMILES),Potency,"activity change, negative = inhibition"
NS(=O)(=O)c1ccc(CCNC(=O)CCCC2=NS(=O)(=O)c3ccccc3N2)cc1,active: 5.22 µM,
CCC(C)NC(=O)c1ccc(CSCc2cccc(F)c2)o1 (stereo not drawn),"inconclusive: 18.5 µM [inhibitor, single point]",
O=C(CC1CCCCC1)NCc1ccccn1,"inconclusive: 10.4 µM [inhibitor, single point]",
CCOc1ccc(C(=O)Nc2ccc(S(=O)(=O)Nc3nccc(C)n3)cc2)cc1OCC,active: 8.28 µM,
CN1CCN(c2ccc(Cl)cc2NC(=O)C2COc3ccccc3O2)CC1 (stereo not drawn),active: 2.33 µM,
COc1ccc(-c2nonc2NC(=O)c2oc3ccc(F)cc3c2C)cc1OC,"inconclusive: 7.38 µM [inhibitor, partial curve, poor fit]",
Cc1ccccc1-c1ccc(/C=C2/SC(N3CCOCC3)=NC2=O)o1,"inconclusive: 4.65 µM [inhibitor, partial curve]",
CCN1CCN(CCNC(=O)c2ccc3nc(-c4cccc(C)c4)c(-c4cccc(C)c4)nc3c2)CC1,"inconclusive: 11.7 µM [inhibitor, single point]",
Cc1nc2ccccc2c2c1C(=O)N(C1CCCCCCC1)C2=O,,inactive: -1.38%
Cc1nc(-c2ccc(Cl)cc2)sc1C(=O)NNC(=O)C(C)C,,inactive: 37.9%
Cc1cccc(NC(=S)NCc2ccc3c(c2)OCO3)c1,,inactive: -13.9%
COc1ccc(N2C(=O)CC(Sc3nc4ccccc4s3)C2=O)cc1 (stereo not drawn),"inconclusive: 20.8 µM [inhibitor, partial curve, poor fit]",
COc1ccccc1NC(=O)CN(C)S(=O)(=O)c1ccc2c(c1)CCC(=O)N2,"inconclusive: 18.5 µM [inhibitor, single point]",
Fc1ccccc1/C=N/n1c(COc2ccccc2)n[nH]c1=S,,inactive: 7.95%
Cc1ccc(-c2nn(-c3ccccc3)cc2/C=C2\SC(=S)N(CCCCCC(=O)O)C2=O)o1,"inconclusive: 1.65 µM [inhibitor, full curve, poor fit]",
Cc1ccc(S(=O)(=O)Nn2c(C)ccc2C)cc1,"inconclusive: 16.5 µM [inhibitor, single point]",
CCCCC(CC(O)COCCC)C(=O)NN (stereo not drawn),"inconclusive: 0.0029 µM [inhibitor, full curve, poor fit]",
OCc1cc(-c2ccc(Cl)c(Cl)c2)on1,,inactive: 7.03%
COc1ccc(N2CCN(CCCNC(=O)c3ccc(CS(=O)(=O)c4ccc(OC)cc4)o3)CC2)cc1,,inactive: -1.24%
CCC(=O)Nc1ccc(C(=O)CN2CCC(C)CC2)cc1,"inconclusive: 1.85 µM [inhibitor, partial curve, poor fit]",
COc1ccc(S(=O)(=O)N2CCC(C(=O)N3CCCCC3)CC2)cc1Cl,"inconclusive: 18.5 µM [inhibitor, single point]",
Cc1ccc2oc(Nc3nc(C)c(C)c(C)n3)nc2c1,,inactive: 112%
C=COCCCNc1ncnc2sc(-c3ccccc3)cc12,"inconclusive: 13.1 µM [inhibitor, single point]",

# Entries shown so far with sulfur:
Structure (SMILES),Potency,"activity change, negative = inhibition"
NS(=O)(=O)c1ccc(CCNC(=O)CCCC2=NS(=O)(=O)c3ccccc3N2)cc1,active: 5.22 µM,
CCC(C)NC(=O)c1ccc(CSCc2cccc(F)c2)o1 (stereo not drawn),"inconclusive: 18.5 µM [inhibitor, single point]",
CCOc1ccc(C(=O)Nc2ccc(S(=O)(=O)Nc3nccc(C)n3)cc2)cc1OCC,active: 8.28 µM,
Cc1ccccc1-c1ccc(/C=C2/SC(N3CCOCC3)=NC2=O)o1,"inconclusive: 4.65 µM [inhibitor, partial curve]",
Cc1nc(-c2ccc(Cl)cc2)sc1C(=O)NNC(=O)C(C)C,,inactive: 37.9%
Cc1cccc(NC(=S)NCc2ccc3c(c2)OCO3)c1,,inactive: -13.9%
COc1ccc(N2C(=O)CC(Sc3nc4ccccc4s3)C2=O)cc1 (stereo not drawn),"inconclusive: 20.8 µM [inhibitor, partial curve, poor fit]",
COc1ccccc1NC(=O)CN(C)S(=O)(=O)c1ccc2c(c1)CCC(=O)N2,"inconclusive: 18.5 µM [inhibitor, single point]",
Fc1ccccc1/C=N/n1c(COc2ccccc2)n[nH]c1=S,,inactive: 7.95%
Cc1ccc(-c2nn(-c3ccccc3)cc2/C=C2\SC(=S)N(CCCCCC(=O)O)C2=O)o1,"inconclusive: 1.65 µM [inhibitor, full curve, poor fit]",
Cc1ccc(S(=O)(=O)Nn2c(C)ccc2C)cc1,"inconclusive: 16.5 µM [inhibitor, single point]",
COc1ccc(N2CCN(CCCNC(=O)c3ccc(CS(=O)(=O)c4ccc(OC)cc4)o3)CC2)cc1,,inactive: -1.24%
COc1ccc(S(=O)(=O)N2CCC(C(=O)N3CCCCC3)CC2)cc1Cl,"inconclusive: 18.5 µM [inhibitor, single point]",
C=COCCCNc1ncnc2sc(-c3ccccc3)cc12,"inconclusive: 13.1 µM [inhibitor, single point]",

# Next part

Structure (SMILES),Potency,"activity change, negative = inhibition"
COc1ccc2oc(-c3ccc(NC(=O)c4ccc(N5CCOCC5)c([N+](=O)[O-])c4)cc3)nc2c1,"inconclusive: 13.1 µM [inhibitor, single point]",
CCOC(=O)c1c(N)sc2c(NC(C)=O)cccc12,,inactive: 28.3%
COc1ccc2[nH]c(=O)c(CN(C(=O)C3CCCO3)c3cccc(C)c3)cc2c1 (stereo not drawn),active: 8.28 µM,
COc1cccc(Nc2nc3ccccc3n3cnnc23)c1,"inconclusive: 13.1 µM [inhibitor, single point]",
COc1cc([N+](=O)[O-])c(OC)cc1SCc1n[nH]c(=S)n1-c1ccc(F)cc1,active: 1.65 µM,
CCCOC1CCCN(Cc2nc(-c3cnccn3)no2)C1 (stereo not drawn),active: 10.4 µM,
O=C(N/N=C/c1cccc([N+](=O)[O-])c1)c1ccc(CN2CCOCC2)cc1,,inactive: 43.6%
Cc1ccc(-c2nn(CC(=O)NN3CCOCC3)c(=O)c3ccccc23)cc1,,inactive: 19%
O=C(O)c1cccc(N/N=C(\N=Nc2ccccc2)c2ccccc2)c1,"inconclusive: 18.5 µM [inhibitor, single point]",
COc1cc(O)c(C(CC(=O)N2CCCC(C)C2)c2cc(OC)c(OC)c(OC)c2)c(OC)c1 (stereo not drawn),"inconclusive: 18.5 µM [inhibitor, single point]",
CC1Cc2cc(/C(O)=C3/C(=O)C(=O)N(Cc4ccncc4)C3c3ccc(N(C)C)cc3)ccc2O1 (stereo not drawn),"inconclusive: 18.5 µM [inhibitor, partial curve, poor fit]",
CC1CCN(C(=O)CNC(=O)CNC(=O)Cc2ccccc2)CC1,"inconclusive: 7.38 µM [inhibitor, partial curve, poor fit]",
COc1ccc(CCNC(=O)CCc2ccsc2)cc1OC,,inactive: 1.56%
CCCCSC1(SCCCC)N=C(N)C2(C#N)C(c3ccccc3)NC(C)=C(C)C12C#N (stereo not drawn),"inconclusive: 20.8 µM [inhibitor, partial curve, poor fit]",
CC(C)C[C@H]1C(=O)N2CCC[C@H]2[C@]2(O)O[C@](NC(=O)[C@@H]3C=C4c5cccc6[nH]c(Br)c(c56)CC4N(C)C3)(C(C)C)C(=O)N12 (stereo partly drawn),active: 4.15 µM,
O=C(/C=C/c1ccc(Br)cc1)NC(=S)Nc1ccc(S(=O)(=O)Nc2nccs2)cc1,"inconclusive: 9.28 µM [inhibitor, partial curve, poor fit]",
C#CCOCCOCCOCCNc1nc(N2CCN(C(=O)C(Cc3ccc(O)cc3)n3cc(C(N)CC(C)C)nn3)CC2)nc(N2CCN(C(=O)C(Cc3ccc(O)cc3)n3cc(C(N)C(C)CC)nn3)CC2)n1 (stereo not drawn),"inconclusive: 4.15 µM [inhibitor, partial curve]",
CCOC(=O)c1ccc2c(c1)nc(SC(C)C(=O)NCC1CCCO1)n2CC (stereo not drawn),"inconclusive: 20.8 µM [inhibitor, single point]",
O=C(CSc1ncnc2c1sc1ccccc12)Nc1ccc(Br)cc1,active: 13.1 µM,
Cc1cccc(Nc2nnc(SCC(=O)NC3CCCc4ccccc43)s2)c1C (stereo not drawn),"inconclusive: 9.28 µM [inhibitor, partial curve, poor fit]",
CC(C)CN(C1CCS(=O)(=O)C1)S(=O)(=O)c1ccc(C(C)C)cc1 (stereo not drawn),"inconclusive: 18.5 µM [inhibitor, single point]",
CCc1cccc(C)c1NC(=O)CCOc1ccccc1,,inactive: -1.86%
Cc1cc(C)c(C)c(S(=O)(=O)N2CCN(C(=O)CCc3nc4ccccc4c(=O)[nH]3)CC2)c1C,"inconclusive: 9.28 µM [inhibitor, partial curve, poor fit]",

# Reformatted tab-delimited: entries from further up
Structure (SMILES)	Potency	activity change, negative = inhibition
COc1ccc(N2CCN(CCCNC(=O)c3ccc(CS(=O)(=O)c4ccc(OC)cc4)o3)CC2)cc1		inactive: -1.24%
COc1cccc(Nc2nc3ccccc3n3cnnc23)c1	inconclusive: 13.1 µM [inhibitor, single point]	

# (listing goes on)

Structure (SMILES),Potency,"activity change, negative = inhibition"
C/C(=N\NC(=O)c1cc(-c2cccc([N+](=O)[O-])c2)n[nH]1)c1ccccc1O,"inconclusive: 16.5 µM [inhibitor, single point]",
CCCOc1cccc(C2C(C(=O)c3ccc(C)o3)=C(O)C(=O)N2CCN2CCOCC2)c1 (stereo not drawn),,inactive: -21.1%
O=C(Cn1ccc([N+](=O)[O-])n1)NCC1CCCO1 (stereo not drawn),"inconclusive: 10.4 µM [inhibitor, single point]",
CC(C)c1ccc(OC(=O)c2cccc(S(=O)(=O)N3CCN(C)CC3)c2)cc1,,inactive: -4.75%
CC1Cc2ccccc2N1C(=O)c1ccc(N2CCCC2)c([N+](=O)[O-])c1 (stereo not drawn),"inconclusive: 10.4 µM [inhibitor, partial curve]",
O=C(CNc1cccc(S(=O)(=O)N2CCOCC2)c1)Nc1ccc(C(F)(F)F)cc1,active: 7.38 µM,
O=C(NCC(O)COc1ccc([N+](=O)[O-])cc1)Nc1ccccc1 (stereo not drawn),,inactive: -16.8%
Cc1ccc(C(=O)OC(C)C(=O)NCc2ccc3c(c2)OCO3)cc1S(=O)(=O)N1CCOCC1 (stereo not drawn),"inconclusive: 14.7 µM [inhibitor, partial curve, poor fit]",
COC(=O)c1cc(=O)n(-c2ccccc2)c(=Nc2ccccc2)s1,,inactive: -2.83%
COC(=O)c1[nH]c2ccccc2c1NC(=O)C(C)N1CCOCC1 (stereo not drawn),,inactive: -12.7%
CCCOc1ccc(S(=O)(=O)N2CCN(C)CC2)c2ccccc12,"inconclusive: 0.0262 µM [inhibitor, full curve, poor fit]",
COc1ccc(N(CC(=O)Nc2ccc3c(c2)OCCO3)S(=O)(=O)c2cccnc2)cc1,"inconclusive: 13.1 µM [inhibitor, partial curve, poor fit]",
COCc1c(C(=O)N/N=C/c2c[nH]c3ccccc23)nnn1-c1nonc1N,"inconclusive: 18.5 µM [inhibitor, single point]",
COC(CNC(=O)c1cc(-c2ccncc2)nc2ccc(S(=O)(=O)N3CCOCC3)cc12)OC,,inactive: -15.5%
Cc1ccc(C)c(NC(=S)NCc2ccc3[nH]c4c(c3c2)CCCC4)c1,active: 13.1 µM,
CC(C)(C)OC(=O)N[C@@H](/C=C/c1ccccc1)C(=O)OC(C)(C)C,"inconclusive: 5.22 µM [inhibitor, partial curve, poor fit]",
COc1ccc2c(C)c(CC(=O)N3C[C@H]4C[C@@H](C3)c3cccc(=O)n3C4)c(=O)oc2c1C,"inconclusive: 18.5 µM [inhibitor, single point]",
Cc1cc(C)cc(-n2c(C)cc(C(=S)N3CCOCC3)c2C)c1,,inactive: 41.9%
C=CCc1cccc(/C=N/NC(=O)C(=O)Nc2ccc(C)cc2)c1O,"inconclusive: 18.5 µM [inhibitor, single point]",
COc1ccc(-n2nc(C(=O)NCC(=O)NCCN(C)C)c3ccccc3c2=O)c(OC)c1,,inactive: 18.6%
CCn1c(-c2cc(-c3ccccc3)sc2N)n[nH]c1=S,"inconclusive: 0.0738 µM [inhibitor, full curve, poor fit]",
Cc1cccc(C)c1NC(=O)CN(C)C(=O)c1cc(S(=O)(=O)N2CCOCC2)ccc1N1CCCC1,"inconclusive: 11.7 µM [inhibitor, single point]",
